Assay results from article doi:10.1101/2023.08.07.552250.

Chains of the proteins cited; added tags and fusions are not shown.
UniProt Q9LY75: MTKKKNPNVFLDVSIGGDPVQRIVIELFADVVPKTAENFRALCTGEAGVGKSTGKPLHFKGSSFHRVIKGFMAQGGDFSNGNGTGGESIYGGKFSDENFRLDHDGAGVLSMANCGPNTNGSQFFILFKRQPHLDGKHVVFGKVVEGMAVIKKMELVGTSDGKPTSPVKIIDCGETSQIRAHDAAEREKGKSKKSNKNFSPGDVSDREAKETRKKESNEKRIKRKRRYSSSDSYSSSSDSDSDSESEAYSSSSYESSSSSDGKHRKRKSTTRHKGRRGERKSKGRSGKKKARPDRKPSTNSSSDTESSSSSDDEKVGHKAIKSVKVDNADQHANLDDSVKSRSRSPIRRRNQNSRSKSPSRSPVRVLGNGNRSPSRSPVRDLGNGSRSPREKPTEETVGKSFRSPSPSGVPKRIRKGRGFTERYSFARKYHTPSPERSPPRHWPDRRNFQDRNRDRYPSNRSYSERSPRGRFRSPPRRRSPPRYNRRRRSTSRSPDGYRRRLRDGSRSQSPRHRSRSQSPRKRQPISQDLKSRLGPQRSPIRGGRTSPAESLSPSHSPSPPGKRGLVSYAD

T1: serine/arginine-rich 45 (SR45), SR45.1 isoform (Arabidopsis thaliana) (UniProt Q9SEE9)
T1 sequence: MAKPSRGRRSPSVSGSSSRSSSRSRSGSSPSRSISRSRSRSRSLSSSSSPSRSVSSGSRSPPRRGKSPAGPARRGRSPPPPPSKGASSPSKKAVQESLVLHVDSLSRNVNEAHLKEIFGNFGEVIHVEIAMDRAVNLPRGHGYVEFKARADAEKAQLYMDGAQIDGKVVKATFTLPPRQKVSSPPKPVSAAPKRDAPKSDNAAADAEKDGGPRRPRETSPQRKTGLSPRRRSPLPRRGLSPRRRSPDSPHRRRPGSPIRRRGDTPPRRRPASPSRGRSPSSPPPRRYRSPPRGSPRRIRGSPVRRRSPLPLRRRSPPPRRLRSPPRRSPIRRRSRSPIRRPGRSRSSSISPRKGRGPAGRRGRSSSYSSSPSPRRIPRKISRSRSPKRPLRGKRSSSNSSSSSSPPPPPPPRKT

T2: SR45mutRRM (Arabidopsis thaliana) (UniProt Q9SEE9)
T2 sequence: T1 sequence with H101A, H141A, Y143A

B1: AFC2 (enzyme, UniProt P51567 1-427)
chain: MEMERVHEFPHTHMDRRPRKRARLGWDVLPQATKAQVGMFCGQEIGNISSFASSGAPSDNSSSLCVKGVARNGSPPWREDDKDGHYIFELGDDLTPRYKIYSKMGEGTFGQVLECWDRERKEMVAVKIVRGVKKYREAAMIEIEMLQQLGKHDKGGNRCVQIRNWFDYRNHICIVFEKLGSSLYDFLRKNNYRSFPIDLVREIGWQLLECVAFMHDLRMIHTDLKPENILLVSSDYVKIPEYKGSRLQRDVCYKRVPKSSAIKVIDFGSTTYERQDQTYIVSTRHYRAPEVILGLGWSYPCDVWSVGCIIVELCTGEALFQTHENLEHLAMMERVLGPFPQQMLKKVDRHSEKYVRRGRLDWPDGATSRDSLKAVLKLPRLQNLIMQHVDHSAGELINMVQGLLRFDPSERITAREALRHPFFARRR
B2: PRP38:NYFP (protein, UniProt Q8LB54 1-355)
chain: MANRTDPLAKNIRGTNPQNLVEKIVRTKIYQHTFWKEQCFGLTAETLVDKAMELDHLGGTFGGSRKPTPFLCLILKMLQIQPEKEIVVEFIKNDDYKYVRILGAFYLRLTGTDVDVYRYLEPLYNDYRKVRQKLSDGKFSLTHVDEVIEELLTKDYSCDIAMPRLKKRWTLEQNGLLEPRKSVLEDDFEEEEEKEENEGIADGSEDEMDQRRKSPERERERDRDRRRDSHRHRDRDYDRDYDMDRDHDRDYERERGHGRDRDRERDRDHYRERDRDRERGRDRERDRRDRARRRSRSRSRDRKRHETDDVRDREEPKKKKEKKEKMKEDGTDHPNPEIAEMNRLRASLGMKPLRD
B3: SR34:NYFP (protein, UniProt O22315 1-303)
chain: MSSRSSRTVYVGNLPGDIREREVEDLFSKYGPVVQIDLKVPPRPPGYAFVEFDDARDAEDAIHGRDGYDFDGHRLRVELAHGGRRSSDDTRGSFNGGGRGGGRGRGDGGSRGPSRRSEFRVLVTGLPSSASWQDLKDHMRKGGDVCFSQVYRDARGTTGVVDYTCYEDMKYALKKLDDTEFRNAFSNGYVRVREYDSRKDSRSPSRGRSYSKSRSRSRGRSVSRSRSRSRSRSRSPKAKSSRRSPAKSTSRSPGPRSKSRSPSPRRSRSRSRSPLPSVQKEGSKSPSKPSPAKSPIHTRSPSR
B4: Cyp59 (protein, UniProt Q6Q151 1-506)
chain: MSVLIVTSLGDIVIDLHSDKCPLTCKNFLKLCKIKYYNGCLFHTVQKDFTAQTGDPTGTGAGGDSIYKFLYGEQARFYKDEIHLDLKHSKTGTVAMASGGENLNASQFYFTLRDDLDYLDGKHTVFGQIAEGFDTLTRINEAYVDPKNRPYKNIRIKHTHILDDPFDDPPQLAEMMPDASPEGKPKEEVKDDVRLEDDWVPMDEELGAQELEEVIREKAAHSSAVVLESIGDIPEAEVKPPDNVLFVCKLNPVTEDEDLHTIFSRFGTVVSADVIRDFKTGDSLCYAFIEFENKESCEQAYFKMDNALIDDRRIHVDFSQSVSKLWSQFRQKDSQKGKGNGCFKCGSTDHIAKDCVGGPSSKFIVKDQNRQHGGGEGYEMVFEGDVHETPKHNSHERERSEKIQRRSPHGNGEGKRQHRDERDDGRRQHDREDARELERKHRERKERESREDEDRRRRRRREESRDKESRRERDEDDHRSHRDYKERRRERDDRHGREARHERRDR
B5: CypRS92 (protein, UniProt Q8RWY7 1-837)
chain: MAKKKNPQVFMDVSIDGDPAETMVFELFPEVAPKTSENFRALCTGEKGIGPRSGKPLHYKGSFFHRIMKGSSAQAGDFVNRNGTAGESIYAGKFPDESPKLRHEETGLLSMSIADRDKFGSHFHITFRPNQQLDRNNVVFGKLIQGKEILKKIERVGDEEGKPTVSVKIIRCGEYSGDKKKSDGKKNGKHKKSLRVRRKKRRRHSSSESESSSDSETDSSESDSESDSDLSSPSFLSSSSHERQKKRKRSSKKDKHRRSKQRDKRHEKKRSMRDKRPKRKSRRSPDSLEDSNSGSEASLSDVNVEIGAKKRKHRVSRRTGNSAPAVEKEAESLHQGKRKGPDLLENRGLRSNGISDAASEQISDRQPDIVDDHPSKSRSRSLSPKRTVSKSTSVSPRRSQSKSPSSSPRWNGGRSPAKGSRQVKNLTNSRRESPGSEEKGRHVRRSPTKSVSRSPVRVKKERDISRSPSKSLSRSPLRSPKRVISRSPVRGRIARSPSRSPVRSASRGSLGRGPLRRSSRRSPSRSPVRSSRRSLSRSPIQLSRRSLSRSPTRLSRRSLSRSPIRSPRKSVSRSPVRSSRKSVSRSPVRSSRRRISRSPVRSSRKSVSRSPIRLSRRSISRSPIRLSRRSISRSPVRGRRRISRSPVPARRRSVRPRSPPPDRRRSLSRSASPNGRIRRGRGFSQRFSYARRYRTSPSPDRSPYRFSDRSDRDRFRSRRRFSPSRFRSPLRGRTPPRYRRRSRSVSPGLCYRNRRYSRSPIRSRSPPYRKRRSPSASHSLSPSRSRSRSKSYSKSPIGTGKARSVSRSPSKARSPSKSDSTSSDNSPGGKKGLVAYD

Columns and labels:
[1] = target: T1, serine/arginine-rich 45 (SR45), SR45.1 isoform (Arabidopsis thaliana); assay: two-hybrid
[2] = target: T2, SR45mutRRM (Arabidopsis thaliana); assay: two-hybrid
[3] = target: SR45mutRS1+RRM (Arabidopsis thaliana) (UniProt Q9SEE9); assay: two-hybrid
[4] = target: SR45mutRS1 (Arabidopsis thaliana) (UniProt Q9SEE9); assay: two-hybrid
[5] = target: SR45mutRS2 (Arabidopsis thaliana) (UniProt Q9SEE9); assay: two-hybrid
[6] = target: SR45mutRRM+RS2 (Arabidopsis thaliana) (UniProt Q9SEE9); assay: two-hybrid
[7] = target: SR45mutRS1+RS2 (Arabidopsis thaliana) (UniProt Q9SEE9); assay: two-hybrid
[8] = target: SR45mutRS1+RRM (Arabidopsis thaliana) (UniProt Q9SEE9); assay: two-hybrid; remark: listed apart in the source
[9] = target: SR45mutRS1 (Arabidopsis thaliana) (UniProt Q9SEE9); assay: two-hybrid; remark: listed apart in the source
[10] = target: SR45mutRS2 (Arabidopsis thaliana) (UniProt Q9SEE9); assay: two-hybrid; remark: listed apart in the source
[11] = target: SR45mutRRM+RS2 (Arabidopsis thaliana) (UniProt Q9SEE9); assay: two-hybrid; remark: listed apart in the source
[12] = target: SR45mutRS1+RS2 (Arabidopsis thaliana) (UniProt Q9SEE9); assay: two-hybrid; remark: listed apart in the source
[13] = target: SR45mutRS1:CYFP (Arabidopsis thaliana) (UniProt Q9SEE9); assay: split reporter
[14] = target: SR45mutRS1+RS2:CYFP (Arabidopsis thaliana) (UniProt Q9SEE9); assay: split reporter

Molecule	binding [8]	binding [9]	binding [10]	binding [11]	binding [12]	also measured
SRPK4 (Arabidopsis thaliana) (enzyme)	–	–	–	–	–	binding [1]: binds; binding [2]: binds
CypRS64 (Cyclophilin-containing RS domain of 64 kDa) (from UniProt Q9LY75 1-570)	–	–	–	–	–	binding [3]: no binding; binding [4]: no binding; binding [5]: no binding; binding [6]: no binding; binding [7]: no binding
PININ (Arabidopsis thaliana)	–	–	–	–	–	binding [1]: binds; binding [2]: no binding
B1	no binding	no binding	binds	binds	no binding	–
B2	–	–	–	–	–	binding [13]: binds; binding [14]: binds
B3	–	–	–	–	–	binding [13]: binds; binding [14]: no binding
B4	no binding	no binding	no binding	no binding	no binding	–
B5	no binding	no binding	no binding	no binding	no binding	–

Substitutions are numbered along the chain they refer to. Read-outs that look alike come from different tables or passages of the source. These are yes or no findings as the source states them, for the method shown. For some of these results: A result given as binding can be weak or reduced; the word gives no strength. For some of these results: Binding seen in cells or lysates may run through a third protein. For some of these results: Tags and fused reporters may be left off the sequences shown.
